# For part of these data: The hits were mostly taken out for another list; the other results follow. Records with an inconclusive call do not appear. The entries are a selection whose mix differs from that of the whole data set. Calls of active or inactive are those of the source. The calls were made as follows, unless noted: active = hit-call score of the fitted dose curve at least 0.9, where 1 is the maximum; inactive = score below 0.9.
# Protein sequences, listed by entry. Tags and fused reporters are not part of them.
# UniProt P03372, whole entry, looked up: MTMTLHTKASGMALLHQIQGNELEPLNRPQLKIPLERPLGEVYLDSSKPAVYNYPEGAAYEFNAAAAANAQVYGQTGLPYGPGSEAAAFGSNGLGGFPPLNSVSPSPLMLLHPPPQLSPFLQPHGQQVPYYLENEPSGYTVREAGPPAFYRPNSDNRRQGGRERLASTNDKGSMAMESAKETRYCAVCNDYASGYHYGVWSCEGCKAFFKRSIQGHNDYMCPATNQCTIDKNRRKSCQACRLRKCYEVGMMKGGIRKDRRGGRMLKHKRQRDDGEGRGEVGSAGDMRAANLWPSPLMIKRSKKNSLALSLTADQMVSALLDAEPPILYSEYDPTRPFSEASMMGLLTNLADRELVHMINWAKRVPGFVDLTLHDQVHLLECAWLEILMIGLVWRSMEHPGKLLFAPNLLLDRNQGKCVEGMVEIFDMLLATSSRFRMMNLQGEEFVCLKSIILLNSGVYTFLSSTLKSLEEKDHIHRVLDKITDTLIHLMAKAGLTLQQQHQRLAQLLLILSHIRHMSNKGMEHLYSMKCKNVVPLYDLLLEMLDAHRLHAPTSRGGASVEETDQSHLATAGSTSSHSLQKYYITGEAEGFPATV
# Tests used:
# [1] = read-out: Transforming growth factor beta 1 (TGFb1), TGFB1 (gene 7040); experiment: BSK_BE3C_TGFb1: BioMAP Diversity Plus: BE3C Assay for Transforming growth factor beta 1 (TGFb1) Biomarker Activity (AID 2283036;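 also: TGF-b1 protein level measured by ELISA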); conditions: actives raise or lower the signal; primary human bronchial epithelial cells
# Outline: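 Bronchial epithelial primary cells are treated with test chemical, then TGF-b1 is quantified by ELISA after 24 hours. Values derive from bidirectional fitting against DMSO, with cytotoxicity checked by SRB staining in parallel cultures.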
# [2] = read-out: Vascular cell adhesion molecule 1 (VCAM1), VCAM1 (gene 7412); experiment: BSK_CASM3C_VCAM1: BioMAP Diversity Plus: CASM3C Assay for Vascular cell adhesion molecule 1 (VCAM1) Biomarker Activity (AID 2283055); conditions: actives raise or lower the signal; primary human coronary artery smooth muscle cells;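 also: VCAM-1 protein level quantified by ELISA on the cells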
# [3] = read-out: Urokinase-type plasminogen activator receptor (uPAR), PLAUR (gene 5329); experiment: BSK_4H_uPAR: BioMAP Diversity Plus: 4H Assay for Urokinase-type plasminogen activator receptor (uPAR) Biomarker Activity (AID 2283030); conditions: actives raise or lower the signal; primary human endothelial cells (HUVEC)
# Outline: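 Endpoint derived via bidirectional curve fitting against DMSO baseline; readout was ELISA detection of uPAR on umbilical vein endothelial cells at 24 h post-treatment, with SRB-stained parallel cultures assessing cytotoxicity.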
# [4] = BSK_CASM3C_SRB: Viability Assessment in the BioMAP Diversity Plus: CASM3C Assay (AID 2283050); conditions: primary human coronary artery smooth muscle cells;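 also: total protein by SRB staining as cytotoxicity measure in parallel cultures; cells exposed to compound for 24 h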
# [5] = read-out: Pyruvate Dehydrogenase Kinase 4 (PDK4), PDK4 (gene 5166); experiment: LTEA_HepaRG_PDK4: Life Technologies and Expression Analysis (LTEA) Assay for Pyruvate Dehydrogenase Kinase 4 (PDK4) using HepaRG (AID 2283525); conditions: actives raise or lower the signal; mRNA level, 48 h
# Outline: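 Readout is qRT-PCR of PDK4 transcript, normalized to three housekeeping genes, with bidirectional fitting against 0.5% DMSO vehicle. Differentiated HepaRG cells were treated 48 h in serum-free induction medium, duplicate wells, eight-point half-log series topping at 100 uM.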
# [6] = Tanguay_ZF_120hpf_SOMI_legacy: (Legacy) Oregon State University Tanguay Lab 120 Hour Post-fertilization zebrafish Assay for Somite Malformation (AID 2283647; active = hit-call score of the fitted dose curve at least 0.9, where 1 is the maximum)
# Outline: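 Somitogenesis defects are recorded as binary calls in whole larvae at 120 hpf after continuous static chemical exposure starting at 6 hpf in dechorionated 5D embryos. DMSO serves as negative control and baseline.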
# [7] = CCTE_Shafer_MEA_acute_per_network_burst_electrodes_number_mean: CCTE's Neural Acute Assay for Mean Number of Electrodes in a Network Burst, Shafer Lab (AID 2284021);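 also: curves fitted for decreases only so hits reduce electrodes per burst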
# Outline: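 Percent change from baseline in average electrode count per network burst, rat cortical cultures on 48-well MEAs; 40-min recordings each side of exposure, DIV 13 or 15; threshold 8x rms noise; DMSO as negative control.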
# [8] = read-out: Interleukin-6 (IL6), IL6 (gene 3569); experiment: BSK_CASM3C_IL6: BioMAP Diversity Plus: CASM3C Assay for Interleukin-6 (IL6) Biomarker Activity for (AID 2283040); conditions: actives raise or lower the signal; primary human coronary artery smooth muscle cells
# [9] = read-out: Urokinase-type plasminogen activator receptor (uPAR), PLAUR (gene 5329); experiment: BSK_BE3C_uPAR: BioMAP Diversity Plus: BE3C Assay for Urokinase-type plasminogen activator receptor (uPAR) Biomarker Activity (AID 2283039); conditions: actives raise or lower the signal; primary human bronchial epithelial cells
# Outline: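 Steps: dose human primary bronchial epithelial cells, incubate 24 h, measure uPAR by ELISA, then fit gain- or loss-of-signal response bidirectionally relative to DMSO.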
# [10] = read-out: MicroRNA 122 (MIR122), gene 406906; experiment: LTEA_HepaRG_MIR122: Life Technologies and Expression Analysis (LTEA) Assay for MicroRNA 122 (MIR122) using HepaRG (AID 2283516); conditions: actives raise or lower the signal; mRNA level, 48 h; also: the transcript read is the microRNA miR-122
# Outline: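 Human liver HepaRG cultures receive test chemicals for 48 h at eight half-log concentrations from 100 uM. Expression is quantified by qRT-PCR with ACTB/GAPDH/POLR2A normalization and fitted bidirectionally against 0.5% DMSO.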
# [11] = read-out: Low-density lipoprotein receptor (LDLR), LDLR (gene 3949); experiment: BSK_CASM3C_LDLR: BioMAP Diversity Plus: CASM3C Assay for Low-density lipoprotein receptor (LDLR) Biomarker Activity (AID 2283045); conditions: actives raise or lower the signal; primary human coronary artery smooth muscle cells;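 also: LDLR protein level on the cell surface quantified by ELISA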
# [12] = read-out: Interleukin-8 (IL8), CXCL8 (gene 3576); experiment: BSK_LPS_IL8: BioMAP Diversity Plus: LPS Assay for Interleukin-8 (IL8) Biomarker Activity (AID 2283078); conditions: actives raise or lower the signal; primary human HUVEC with PBMC
# Outline: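 In this LPS system, chemical-treated human umbilical vein endothelium/PBMC co-cultures were harvested at 24 h for IL-8 ELISA.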
# [13] = read-out: Monocyte Chemoattractant Protein-1 (MCP1), CCL2 (gene 6347); experiment: BSK_LPS_MCP1: BioMAP Diversity Plus: LPS Assay for Monocyte Chemoattractant Protein-1 (MCP1) Biomarker Activity (AID 2283081); conditions: actives raise or lower the signal; primary human HUVEC with PBMC;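 also: co-culture stimulated with LPS; secreted MCP-1 protein quantified by ELISA in culture supernatant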
# Outline: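 Values derive from bidirectional fitting against DMSO of ELISA-measured MCP-1 in a human primary endothelial and mononuclear cell co-culture, 24 h after chemical addition under LPS activation.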
# [14] = molecular target: Estrogen receptor (Homo sapiens) (UniProt P03372); experiment: OT_ER_ERaERa_1440: Odyssey Thera (OT) 24-hour HEK293T Protein-Complementation Assay for Estrogen Receptor-alpha/-alpha Homodimer (AID 2283349; active = hit-call score of the fitted dose curve at least 0.9, where 1 is the maximum;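 also: hits raise fluorescence above DMSO for agonists and antagonists alike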)
# Outline: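 HEK293T, stable ERα LBD (aa 310-547) homodimer PCA; 24 h compound exposure; mean fluorescence intensity (nuclear for agonists, nuclear plus cytoplasmic for antagonists) vs vehicle; positive fitting direction, DMSO baseline.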
# [15] = molecular target: Estrogen receptor (Homo sapiens) (UniProt P03372); experiment: OT_ER_ERaERa_0480: Odyssey Thera (OT) 8-hour HEK293T Protein-Complementation Assay for Estrogen Receptor-alpha/-alpha Homodimer (AID 2283351; active = hit-call score of the fitted dose curve at least 0.9, where 1 is the maximum;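 also: rise in fluorescence from reassembled reporter fragments on ERα LBD homodimer in nucleus or whole cell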)
# Outline: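 Cells were treated for 8 hours, then imaged on a laser scanning plate cytometer. Complementation of reporter fragments fused to the human ERα ligand-binding domain (residues 310-547) in HEK293T gave fluorescence, and gain of signal over vehicle was fitted.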
# [16] = read-out: ATP-citrate lyase (ACLY), ACLY (gene 47); experiment: LTEA_HepaRG_ACLY: Life Technologies and Expression Analysis (LTEA) Assay for ATP-citrate lyase (ACLY) using HepaRG (AID 2283466); conditions: actives raise or lower the signal; mRNA level, 48 h
# Outline: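 ACLY mRNA quantified by qRT-PCR on Fluidigm arrays against three housekeeping genes, after 48 h chemical treatment of HepaRG cells (top concentration 100 uM, half-log steps, 0.5% DMSO vehicle). Up- or down-regulation fitted relative to DMSO.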
# [17] = molecular target: Nuclear receptor subfamily 1 group I member 2 (Mus musculus) (UniProt O54915); experiment: ATG_mPXR_XSP2: Attagene TRANS-FACTORIAL Multi-Species (XSP1) HepG2 Assay for mouse Pregnane X Receptor (PXR) (AID 2283831; active = hit-call score of the fitted dose curve at least 0.9, where 1 is the maximum)
# Outline: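 Fluorescence signals from capillary electrophoresis of RT-PCR-amplified reporter mRNA give the readout, gain-of-signal versus DMSO. Transfected HepG2 cells, 24 h dosing, medium contained 3 nM 6-alpha-fluorotestosterone and 1.5 nM norgestrel.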
# [18] = VALA_TUBHUV_Antagonist_CellCount: Viability Assessment in the VALA Sciences human Umbilical Vein Endothelial Tubule Formation (TUBHUV) Antagonism Assay (AID 2284310; active = hit-call score of the fitted dose curve at least 0.9, where 1 is the maximum)
# Outline: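 Read-out is imaged cell count after nuclear and CD31 staining, fitted against 0.1% DMSO vehicle. Compounds were added for 3 days, in 10 ng/ml VEGF assay medium, to HUVEC–HDF co-cultures pre-grown 3 days.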
smiles,measurement,setting,value
CCOC(=O)C(C)Oc1ccc(Oc2cnc3cc(Cl)ccc3n2)cc1 (stereo not drawn),outcome,[1],inactive
same,outcome,[2],inactive
CCCCCCCCCCCCCCCCCC(=O)O,outcome,[3],inactive
same,outcome,[4],inactive
same,outcome,[5],inactive
same,outcome,[6],inactive
same,outcome,[7],inactive
COc1ccc2sc(C(=O)Nc3nnn[nH]3)c(OC(C)C)c2c1,outcome,[8],inactive
CCCN(CCC)c1c([N+](=O)[O-])cc(C(F)(F)F)c(N)c1[N+](=O)[O-],AC50,[9],active: 33.3 µM
same,outcome,[10],inactive
CC(C)CCCCCCc1ccc(O)cc1,AC50,[11],active: 33.3 µM
same,AC50,[12],active: 11.7 µM
same,AC50,[13],active: 12 µM
same,AC50,[14],active: 11.9 µM
same,AC50,[15],active: 11.9 µM
same,outcome,[16],inactive
same,outcome,[17],inactive
same,outcome,[18],inactive

# From PubChem BioAssay (EPA / NIEHS)
